Assay results reported in paper PMC10978903.
No constants are given. Whether binding was seen depends on the method and setting. In cells and extracts the contact can be indirect. Binding calls can cover weak binding; strength is not graded here. Tags and fused reporters may be left off the sequences shown.

How the values were obtained:
[1] = biological target: T1, Flag-GR50-GFP (poly-glycine-arginine, 50 repeats), lentiviral construct in rat cortical neurons; assay: co-IP; anti-FLAG M2 agarose beads (mouse IgG agarose beads as control); 600 μg lysate of rat cortical neurons in IP buffer (50 mM Tris-HCl pH 7.5, 150 mM NaCl, 0.5% NP-40), 4 °C, 24 h; western blot
T1 sequence: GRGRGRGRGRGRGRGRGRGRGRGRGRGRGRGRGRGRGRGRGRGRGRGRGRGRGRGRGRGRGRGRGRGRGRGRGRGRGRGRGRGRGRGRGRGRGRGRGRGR

[2] = biological target: T1, Flag-GR50-GFP (poly-glycine-arginine, 50 repeats), lentiviral construct in rat cortical neurons; assay: co-IP; anti-GFP antibody cross-linked to magnetic beads; lysates of rat cortical neurons transduced with GR50 or GFP; neurons treated with the crosslinker DSP (0.1 mM) before harvest; with or without arsenite (0.5 mM, 30 min); western blot for GFP and Kapβ2
[3] = biological target: karyopherin β2 (Kapβ2), endogenous in rat cortical neurons (rat (endogenous in primary cortical neurons)); assay: co-IP; reverse co-IP: Kapβ2 antibody cross-linked to magnetic beads (double volume of beads); lysates of rat cortical neurons transduced with GR50; with or without arsenite; western blot

Molecule	binding [1]	binding [2]	binding [3]
karyopherin β2 (Kapβ2), endogenous in rat cortical neurons	binds	binds	–
Flag-GR50-GFP (poly-glycine-arginine, 50 repeats), lentiviral construct in rat cortical neurons (protein) GRGRGRGRGRGRGRGRGRGRGRGRGRGRGRGRGRGRGRGRGRGRGRGRGRGRGRGRGRGRGRGRGRGRGRGRGRGRGRGRGRGRGRGRGRGRGRGRGRGR	–	–	binds
